Source: patent US8962845B2, “Pyrazole compounds” (National Health Research Institutes, priority 2011, dated 2015)
Some entries share one result that the patent states for a list of compounds.

Chains of the proteins cited; added tags and fusions are not shown.
UniProt P21554, whole entry: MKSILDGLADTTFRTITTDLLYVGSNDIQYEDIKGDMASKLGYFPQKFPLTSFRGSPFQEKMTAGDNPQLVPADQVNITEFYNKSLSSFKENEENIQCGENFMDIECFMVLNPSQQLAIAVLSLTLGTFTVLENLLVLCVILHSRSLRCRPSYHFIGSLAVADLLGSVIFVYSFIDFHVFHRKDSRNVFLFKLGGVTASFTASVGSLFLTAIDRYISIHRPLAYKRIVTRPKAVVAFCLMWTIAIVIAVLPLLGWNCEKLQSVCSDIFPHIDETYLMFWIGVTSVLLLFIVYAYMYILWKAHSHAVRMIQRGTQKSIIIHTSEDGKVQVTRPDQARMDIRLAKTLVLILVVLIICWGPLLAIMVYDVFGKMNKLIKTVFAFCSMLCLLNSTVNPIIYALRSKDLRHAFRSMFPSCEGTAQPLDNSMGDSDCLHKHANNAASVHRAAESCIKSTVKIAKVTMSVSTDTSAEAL

Target: T1, Human CB1 receptor (Homo sapiens, UniProt P21554)
T1 construct: expressed in transfected cells
Test: DELFIA GTP-binding assay
Format: biochemical
Settings: 20 nM CP55,940; HEK293 membranes; units given in the value

SMILES | EC50 for inhibiting Eu-GTP binding (CP55,940-stimulated CB1 receptor activation)
O=C(NN1CCCCC1)c1nn(-c2ccc(Cl)cc2Cl)c(-c2ccc(C#Cc3ccc(C(F)(F)F)cc3)s2)c1CNS(=O)(=O)C1CCCCC1 [Compound 52, 4-(Cyclohexanesulfonamidomethyl)-1-(2,4-dichlorophenyl)-N-(piperidin-1-yl)-5-(5-((4-(trifluoromethyl)phenyl)ethynyl)thiophen-2-yl)-1H-pyrazole-3-carboxamide] | 0.001 µM and 10 µM
O=C(NN1CCCCC1)c1nn(-c2ccc(Cl)cc2Cl)c(-c2ccc(C#Cc3ccc(C(F)(F)F)cc3)s2)c1CNS(=O)(=O)N1CCC(F)(F)C1 [Compound 147, 1-(2,4-dichlorophenyl)-4-((3,3-difluoropyrrolidine-1-sulfonamido)methyl)-N-(piperidin-1-yl)-5-(5-((4-(trifluoromethyl)phenyl)ethynyl)thiophen-2-yl)-1H-pyrazole-3-carboxamide] | 0.001 µM and 10 µM
O=C(NN1CCCCC1)c1nn(-c2ccc(Cl)cc2Cl)c(-c2ccc(C(F)(F)F)cc2)c1CNS(=O)(=O)C1CCCC1 [Compound 138, 4-(Cyclopentanesulfonamidomethyl)-1-(2,4-dichlorophenyl)-N-(piperidin-1-yl)-5-(4-(trifluoromethyl)phenyl)-1H-pyrazole-3-carboxamide] | 0.001 µM and 10 µM
O=C(NN1CCCCC1)c1nn(-c2ccc(Cl)cc2Cl)c(-c2ccc(C#CC3CCCC3)s2)c1CNS(=O)(=O)N1CCCC1 [Compound 74, 5-(5-(Cyclopentylethynyl)thiophen-2-yl)-1-(2,4-dichlorophenyl)-N-(piperidin-1-yl)-4-((pyrrolidine-1-sulfonamido)methyl)-1H-pyrazole-3-carboxamide] | 0.001 µM and 10 µM
N=C(N)NCc1c(C(=O)NN2CCCCC2)nn(-c2ccc(Cl)cc2Cl)c1-c1ccc(C#Cc2ccc(C(F)(F)F)cc2)s1 [Compound 14, 1-(2,4-Dichlorophenyl)-4-(guanidinomethyl)-N-(piperidin-1-yl)-5-(5-((4-(trifluoromethyl)phenyl)ethynyl)thiophen-2-yl)-1H-pyrazole-3-carboxamide] | 0.001 µM and 10 µM
CC1CN(S(=O)(=O)NCc2c(C(=O)NN3CCCCC3)nn(-c3ccc(Cl)cc3Cl)c2-c2ccc(C#Cc3ccc(Cl)cc3)s2)CC(C)O1 (stereo not drawn) [Compound 58, 5-(5-((4-Chlorophenyl)ethynyl)thiophen-2-yl)-1-(2,4-dichlorophenyl)-4-((2,6-dimethylmorpholine-4-sulfonamido)methyl)-N-(piperidin-1-yl)-1H-pyrazole-3-carboxamide] | 0.001 µM and 10 µM
O=C(NN1CCCCC1)c1nn(-c2ccc(Cl)cc2Cl)c(-c2ccc(C#Cc3ccc(C(F)(F)F)cc3)s2)c1CNS(=O)(=O)C1CC1 [Compound 51, 4-(Cyclopropanesulfonamidomethyl)-1-(2,4-dichlorophenyl)-N-(piperidin-1-yl)-5-(5-((4-(trifluoromethyl)phenyl)ethynyl)thiophen-2-yl)-1H-pyrazole-3-carboxamide] | 0.001 µM and 10 µM
O=C(NN1CCCCC1)c1nn(-c2ccc(Cl)cc2Cl)c(-c2ccc(C#Cc3ccc(C(F)(F)F)cc3)s2)c1CNS(=O)(=O)N1CCC[C@@H]1C(F)(F)F [Compound 151, 1-(2,4-dichlorophenyl)-N-(piperidin-1-yl)-5-(5-((4-(trifluoromethyl)phenyl)ethynyl)thiophen-2-yl)-4-(((R)-2-(trifluoromethyl)pyrrolidine-1-sulfonamido)methyl)-1H-pyrazole-3-carboxamide] | 0.001 µM and 10 µM
CN(C)S(=O)(=O)NCc1c(C(=O)NN2CCCCC2)nn(-c2ccc(Cl)cc2Cl)c1-c1ccc(C#CC2CCCC2)s1 [Compound 84, 5-(5-(Cyclopentylethynyl)thiophen-2-yl)-1-(2,4-dichlorophenyl)-4-((N,N-dimethylsulfamoylamino)methyl)-N-(piperidin-1-yl)-1H-pyrazole-3-carboxamide] | 0.001 µM and 10 µM
O=C(NN1CCCCC1)c1nn(-c2ccc(Cl)cc2Cl)c(-c2ccc(C(F)(F)F)cc2)c1CNS(=O)(=O)N1CCS(=O)(=O)CC1 [Compound 137, 1-(2,4-Dichlorophenyl)-4-({[(1,1-dioxidothiomorpholin-4-yl)sulfonyl]amino}methyl)-N-(piperidin-1-yl)-5-[4-(trifluoromethyl)phenyl]-1H-pyrazole-3-carboxamide] | 0.001 µM and 10 µM
O=C(NN1CCCCC1)c1nn(-c2ccc(Cl)cc2Cl)c(-c2ccc(C#Cc3ccc(C(F)(F)F)cc3)s2)c1CNS(=O)(=O)N1CC2CCC1C2 (stereo not drawn) [Compound 50, 4-((2-Aza-bicyclo[2.2.1]heptane-2-sulfonamido)methyl)-1-(2,4-dichlorophenyl)-N-(piperidin-1-yl)-5-(5-((4-(trifluoromethyl)phenyl)ethynyl)thiophen-2-yl)-1H-pyrazole-3-carboxamide] | 0.001 µM and 10 µM
CCCC#Cc1ccc(-c2c(CNS(=O)(=O)N3CCCC3)c(C(=O)NN3CCCCC3)nn2-c2ccc(Cl)cc2Cl)s1 [Compound 62, 1-(2,4-Dichlorophenyl)-5-(5-(pent-1-ynyl)thiophen-2-yl)-N-(piperidin-1-yl)-4-((pyrrolidine-1-sulfonamido)methyl)-1H-pyrazole-3-carboxamide] | 0.001 µM and 10 µM
CNS(=O)(=O)NCc1c(C(=O)NN2CCCCC2)nn(-c2ccc(Cl)cc2Cl)c1-c1ccc(C#Cc2ccc(Cl)cc2)s1 [Compound 59, 5-(5-((4-Chlorophenyl)ethynyl)thiophen-2-yl)-1-(2,4-dichlorophenyl)-4-((N-methylsulfamoylamino)methyl)-N-(piperidin-1-yl)-1H-pyrazole-3-carboxamide] | 0.001 µM and 10 µM
O=C(NN1CCCCC1)c1nn(-c2ccc(Cl)cc2Cl)c(-c2ccc(Cl)cc2)c1CNS(=O)(=O)c1cnc[nH]1 [Compound 124, 4-((1H-Imidazole-5-sulfonamido)methyl)-5-(4-chlorophenyl)-1-(2,4-dichlorophenyl)-N-(piperidin-1-yl)-1H-pyrazole-3-carboxamide] | 0.001 µM and 10 µM
O=C(NN1CCCCC1)c1nn(-c2ccc(Cl)cc2Cl)c(-c2ccc(C#Cc3ccc(C(F)(F)F)cc3)s2)c1CNS(=O)(=O)N1CC[C@@H](C(F)(F)F)C1 [Compound 155, 1-(2,4-dichlorophenyl)-N-(piperidin-1-yl)-5-(5-((4-(trifluoromethyl)phenyl)ethynyl)thiophen-2-yl)-4-(((R)-3-(trifluoromethyl)pyrrolidine-1-sulfonamido)methyl)-1H-pyrazole-3-carboxamide] | 0.001 µM and 10 µM
